For 69 molecules, perinuclear lysosome accumulation results are on record in the supplement of paper PMC8090911.

Where a name gives a salt, the structure may show the parent alone. Some of the results follow. Single values are uncertain, as repeats are few or missing.

For the experiment, the system named is p95-ErbB2-MCF7. Nature of the experiment: perinuclear lysosome accumulation (PNLA, size of LAMP2 puncta), robust Z-score vs plate median; higher = more perinuclear lysosome accumulation (reversal of invasive lysosome distribution). The note with it: 5 µM; 24 h.
For the molecule `CN(C)CCC=C1c2ccccc2COc2ccccc21` [Doxepin hydrochloride], the perinuclear lysosome accumulation amounted to 0.657.

As for `CCC[C@@H]1C[C@@H](C(=O)N[C@@H]([C@H]2O[C@H](SC)[C@H](O)[C@@H](O)[C@H]2O)[C@H](C)Cl)N(C)C1` [Clindamycin hydrochloride], the perinuclear lysosome accumulation is -0.769.

Consider `O=C(N[C@H](CO)[C@H](O)c1ccc([N+](=O)[O-])cc1)C(Cl)Cl` [Chloramphenicol], for which the perinuclear lysosome accumulation is 1.31.

As for `Cc1ccc2c(c1)c1c3n2CCNC3CCC1` (centres undefined) [Pirlindole mesylate], the perinuclear lysosome accumulation is -1.9.

For the molecule `C=C1/C(=C\C=C2/CCC[C@]3(C)[C@@H]([C@H](C)CCCC(C)C)CC[C@@H]23)C[C@@H](O)C[C@@H]1O` [Alfacalcidol], the perinuclear lysosome accumulation came to 0.52.

As for `CCOc1ccc2ccccc2c1C(=O)N[C@@H]1C(=O)N2[C@@H]1SC(C)(C)[C@@H]2C(=O)O` [Nafcillin sodium salt monohydrate], the perinuclear lysosome accumulation is 1.61.

Turning to `CC(C)(CO)C(O)C(=O)NCCCO` (centres undefined) [Panthenol (D)], the perinuclear lysosome accumulation is 1.13.

Turning to `CN(C)C/C=C(/c1ccc(Br)cc1)c1cccnc1` [Zimelidine dihydrochloride monohydrate], the perinuclear lysosome accumulation was 2.35.

As to `CCN(CC)CCNC(=O)c1cc(Cl)c(N)cc1OC` [Metoclopramide monohydrochloride], the perinuclear lysosome accumulation came to 0.0627.

In the case of `Cn1cnc2c1c(=O)[nH]c(=O)n2C` [Theobromine], the perinuclear lysosome accumulation amounted to 0.753.

For the molecule `Cc1c(-c2ccccc2)oc2c(C(=O)OCCN3CCCCC3)cccc2c1=O` [Flavoxate hydrochloride], the perinuclear lysosome accumulation was -1.23.

In the case of `CN[C@@H]1[C@@H](O[C@H]2O[C@H](CO)[C@@H](N)[C@H](O)[C@H]2O)OC2C[C@@H](N)[C@@H](O[C@H]3[C@H](O)[C@@H](O)[C@H](N)C[C@@H]3N)OC2[C@@H]1O` (some centres undefined) [Apramycin], the perinuclear lysosome accumulation worked out at 0.787.

Take `C#Cc1cccc(Nc2ncnc3cc(OCCOC)c(OCCOC)cc23)c1` [Erlotinib]: the perinuclear lysosome accumulation came out at 0.474.

Turning to `Cc1onc(-c2ccccc2Cl)c1C(=O)N[C@@H]1C(=O)N2[C@@H]1SC(C)(C)[C@@H]2C(=O)O` [Cloxacillin sodium salt], the perinuclear lysosome accumulation worked out at 1.13.

Take `CN[C@@H]1[C@H](O)[C@H](NC)[C@H]2O[C@@]3(O)C(=O)C[C@@H](C)O[C@H]3O[C@@H]2[C@H]1O` [Spectinomycin dihydrochloride]: the perinuclear lysosome accumulation was -0.104.

For `NS(=O)(=O)c1cc2c(cc1Cl)NC(C(Cl)Cl)NS2(=O)=O` (centres undefined) [Trichlormethiazide], the perinuclear lysosome accumulation turned out to be 0.647.

For `Cc1ccc(NC(=O)c2ccc(CN3CCN(C)CC3)cc2)cc1Nc1nccc(-c2cccnc2)n1` [Imatinib], the perinuclear lysosome accumulation is -2.15.

`CCCC1C(=O)N2C(N(C)C)=Nc3ccc(C)cc3N2C1=O` (centres undefined) [Azapropazone]: the perinuclear lysosome accumulation was 0.466.

`Clc1ccc(C(Cn2ccnc2)OCc2ccsc2Cl)c(Cl)c1` (centres undefined) [Tioconazole]: the perinuclear lysosome accumulation is -0.255.

Regarding `C[C@](N)(Cc1ccc(O)c(O)c1)C(=O)O` [Methyldopa (L,-)], the perinuclear lysosome accumulation came out at 0.142.

For `c1cnc(N2CCN(Cc3ccc4c(c3)OCO4)CC2)nc1` [Piribedil hydrochloride], the perinuclear lysosome accumulation turned out to be 0.553.

For `C[C@H]1c2cccc(O)c2C(=O)C2=C(O)[C@]3(O)C(=O)C(C(N)=O)=C(O)[C@@H](N(C)C)[C@@H]3[C@@H](O)[C@@H]21` [Doxycycline hydrochloride], the perinuclear lysosome accumulation was -1.13.

Consider `C1CCC(C(CC2CCCCN2)C2CCCCC2)CC1` (centres undefined) [Perhexiline maleate], for which the perinuclear lysosome accumulation was 3.36.

On to `CCc1nc(N)nc(N)c1-c1ccc(Cl)cc1` [Pyrimethamine], for which the perinuclear lysosome accumulation was 0.128.

In the case of `CC(=O)[C@@]1(O)CC[C@H]2[C@@H]3C[C@H](C)C4=CC(=O)C=C[C@]4(C)[C@@]3(F)[C@@H](O)C[C@@]21C` [Fluorometholone], the perinuclear lysosome accumulation was -0.529.

As for `CC(C)NCC(O)COc1ccc(CCOCC2CC2)cc1` (centres undefined) [Betaxolol hydrochloride], the perinuclear lysosome accumulation was -0.391.

Regarding `COc1cc(C(=O)NCc2ccc(OCCN(C)C)cc2)cc(OC)c1OC` [Trimethobenzamide hydrochloride], the perinuclear lysosome accumulation came to 0.793.

For `COc1ccc(-c2cc(=S)ss2)cc1` [Anethole-trithione], the perinuclear lysosome accumulation was -0.942.

Consider `O=C(O)c1cn(C2CC2)c2cc(N3CCNCC3)c(F)cc2c1=O` [Ciprofloxacin hydrochloride], for which the perinuclear lysosome accumulation was 0.562.

As to `O=C(O)/C=C/c1ccc(O)c(O)c1` [Caffeic acid], the perinuclear lysosome accumulation was -1.45.

In the case of `Clc1ccc(Cn2c(CN3CCCC3)nc3ccccc32)cc1` [Clemizole hydrochloride], the perinuclear lysosome accumulation was -0.201.

With `COc1cc2nc(N(C)CCCNC(=O)C3CCCO3)nc(N)c2cc1OC` (centres undefined) [Alfuzosin hydrochloride], the perinuclear lysosome accumulation was -0.648.

For `N[C@@H]1CONC1=O` [D-cycloserine], the perinuclear lysosome accumulation stood at 1.26.

Take `O=C(O)COCCN1CCN(C(c2ccccc2)c2ccc(Cl)cc2)CC1` (centres undefined) [Cetirizine dihydrochloride]: the perinuclear lysosome accumulation was -2.14.

In the case of `C#C[C@]1(OC(C)=O)CC[C@H]2[C@@H]3CCC4=CC(=NO)CC[C@@H]4[C@H]3CC[C@@]21CC` (mixture of isomers) [Norgestimate], the perinuclear lysosome accumulation amounted to 0.0556.

In the case of `Clc1ccc(CO/N=C(\Cn2ccnc2)c2ccc(Cl)cc2Cl)c(Cl)c1` [Oxiconazole Nitrate], the perinuclear lysosome accumulation was 1.46.

Take `CC(=O)O[C@]1(C(C)=O)CC[C@H]2[C@@H]3C=C(Cl)C4=CC(=O)[C@@H]5C[C@@H]5[C@]4(C)[C@H]3CC[C@@]21C` [Cyproterone acetate]: the perinuclear lysosome accumulation amounted to 0.237.

In the case of `Cc1ncc(CO)c(CO)c1O` [Pyridoxine hydrochloride], the perinuclear lysosome accumulation was -1.06.

Regarding `CCc1c(C)[nH]c2c1C(=O)C(CN1CCOCC1)CC2` (centres undefined) [Molindone hydrochloride], the perinuclear lysosome accumulation was determined as 0.0215.

As for `CCC1(c2ccccc2)NC(=O)N(C)C1=O` (centres undefined) [Mephenytoin], the perinuclear lysosome accumulation is 1.02.

`CC1=C(/C=C/C(C)=C/C=C/C(C)=C/C(=O)O)C(C)(C)CCC1` [Retinoic acid]: the perinuclear lysosome accumulation was -1.13.

As to `NC(=O)c1cc[n+](CC2=C(C(=O)[O-])N3C(=O)[C@@H](NC(=O)[C@@H](c4ccccc4)S(=O)(=O)O)[C@H]3SC2)cc1` [Cefsulodin sodium salt], the perinuclear lysosome accumulation came to 0.0912.

Take `CC(=O)Oc1ccccc1C(=O)O` [Acetylsalicylic acid]: the perinuclear lysosome accumulation is -0.137.

Consider `N=C(N)NS(=O)(=O)c1ccc(N)cc1` [Sulfaguanidine], for which the perinuclear lysosome accumulation was -0.137.

On to `CC(=O)[C@H]1CC[C@H]2[C@@H]3CCC4=CC(=O)CC[C@]4(C)[C@H]3CC[C@]12C` [Progesterone], for which the perinuclear lysosome accumulation is -0.296.

On to `CN(C)CC/C=C1/c2ccccc2Sc2ccc(Cl)cc21` [Chlorprothixene hydrochloride], for which the perinuclear lysosome accumulation amounted to 0.542.

Take `NC(Cc1cc(I)c(Oc2cc(I)c(O)c(I)c2)c(I)c1)C(=O)O` (centres undefined) [Thyroxine (L)]: the perinuclear lysosome accumulation was -2.27.

As to `CN(C)CCOC(c1ccccc1)c1ccccc1` [Diphenhydramine hydrochloride], the perinuclear lysosome accumulation was -0.202.

Turning to `COc1ccc2[nH]c([S+]([O-])Cc3ncc(C)c(OC)c3C)nc2n1` (centres undefined) [Tenatoprazole], the perinuclear lysosome accumulation was -0.509.

For `C[C@]12CC[C@@H]3c4ccc(O)cc4CC[C@H]3[C@@H]1CC[C@@H]2O` [Estradiol-17 beta], the perinuclear lysosome accumulation is -2.04.

On to `CCCN(CCC)S(=O)(=O)c1ccc(C(=O)O)cc1` [Probenecid], for which the perinuclear lysosome accumulation was -1.

For `Clc1ccc(CSC(Cn2ccnc2)c2ccc(Cl)cc2Cl)cc1` (centres undefined) [Sulconazole nitrate], the perinuclear lysosome accumulation was 0.373.

For `CC1CNc2c(cccc2S(=O)(=O)N[C@@H](CCCNC(=N)N)C(=O)N2CC[C@@H](C)C[C@@H]2C(=O)O)C1` (some centres undefined) [Argatroban], the perinuclear lysosome accumulation was determined as 1.11.

For the molecule `CN(C)CCN(Cc1ccccc1)c1ccccn1` [Tripelennamine hydrochloride], the perinuclear lysosome accumulation is -0.48.

Turning to `Nc1ccn([C@@H]2O[C@H](CO)[C@@H](O)C2(F)F)c(=O)n1` [Gemcitabine], the perinuclear lysosome accumulation is -0.378.

Take `CN1C(=O)CC(c2ccccc2)C1=O` (centres undefined) [Phensuximide]: the perinuclear lysosome accumulation is -2.49.

For the molecule `CC(=O)O[C@@]12CO[C@@H]1C[C@H](O)[C@@]1(C)C(=O)[C@H](O)C3=C(C)[C@@H](OC(=O)[C@H](O)[C@@H](NC(=O)OC(C)(C)C)c4ccccc4)C[C@@](O)([C@@H](OC(=O)c4ccccc4)[C@H]21)C3(C)C` [Docetaxel], the perinuclear lysosome accumulation was determined as 1.26.

Take `N=C(N)NC(=O)Cc1c(Cl)cccc1Cl` [Guanfacine hydrochloride]: the perinuclear lysosome accumulation is -0.0886.

With `Nc1nc(Cl)nc2c1ncn2[C@H]1C[C@H](O)[C@@H](CO)O1` [Cladribine], the perinuclear lysosome accumulation came out at 0.26.

Consider `CN[C@@H]1[C@H](O[C@H]2[C@H](O[C@H]3[C@H](O)[C@@H](O)[C@H](N=C(N)N)[C@@H](O)[C@@H]3N=C(N)N)O[C@@H](C)[C@]2(O)C=O)O[C@@H](CO)[C@H](O)[C@H]1O` [Streptomycin sulfate], for which the perinuclear lysosome accumulation was -1.93.

Take `OCCOCCN1CCN(C2=Nc3ccccc3Sc3ccccc32)CC1` [Quetiapine]: the perinuclear lysosome accumulation is 0.536.

As to `CC1(C)S[C@@H]2[C@H](NC(=O)[C@H](N)c3ccc(O)cc3)C(=O)N2[C@H]1C(=O)O` [Amoxicillin], the perinuclear lysosome accumulation is -1.42.

Turning to `COc1cccc2c1C(=O)c1c(O)c3c(c(O)c1C2=O)C[C@@](O)(C(=O)CO)C[C@@H]3O[C@H]1C[C@H](N)[C@H](O)[C@H](C)O1` [Doxorubicin hydrochloride], the perinuclear lysosome accumulation is -1.43.

As to `CCC(=O)O[C@@H](O[P@](=O)(CCCCc1ccccc1)CC(=O)N1C[C@H](C2CCCCC2)C[C@H]1C(=O)O)C(C)C` [Fosinopril], the perinuclear lysosome accumulation was -0.365.

Turning to `CCCCC(=O)O[C@H]1CC[C@H]2[C@@H]3CCc4cc(O)ccc4[C@H]3CC[C@]12C` [Estradiol Valerate], the perinuclear lysosome accumulation is -0.0974.

In the case of `CC(=O)Nc1cc2ccccc2oc1=O` [3-Acetamidocoumarin], the perinuclear lysosome accumulation is 0.867.

Consider `N=C(N)c1ccc(OCCCCCOc2ccc(C(=N)N)cc2)cc1` [Pentamidine isethionate], for which the perinuclear lysosome accumulation is 0.469.

For `Fc1ccc(C(c2ccc(F)cc2)N2CCN(C/C=C/c3ccccc3)CC2)cc1` [Flunarizine dihydrochloride], the perinuclear lysosome accumulation was -0.114.

As for `CCCc1cc(=O)[nH]c(=S)[nH]1` [Propylthiouracil], the perinuclear lysosome accumulation is -0.557.
